{"source": "PubChem BioAssay AID602196 (INSERM, 2012)", "screen": "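Modifiers of cisplatin sensitivity in A549 cells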", "system": "human A549 lung cancer cells", "reagent": "siRNA pair against human genes", "time to read-out": "48 h transfection before cisplatin; time from cisplatin to read-out not stated", "conditions": "cisplatin at a dose killing half of control-siRNA cells; exact dose and duration not given", "measurement": "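Shift in cisplatin death relative to control siRNA, from -50 (all cells die) to +50 (no cells die); siRNAs harmful on their own scored 0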", "direction": "two-siRNA summed score (-2 to +2): higher = both siRNAs protect from cisplatin killing; -2 means both sensitise", "hit rule": "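siRNAs harmful alone (LDH or WST-1) get 0; others get +1 for less and -1 for more cisplatin killing; genes are active when the two siRNAs give the same sign, summing to ±2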", "calls": "active = both siRNAs shift cisplatin killing the same way; inactive = no consistent shift, or siRNA harmful alone", "note": "In all, the deposit lists about 23,000 reagents; this is a random part of them. 455 of them (2%) were called active. 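Active includes both protection and sensitisation; some change values fall well beyond the stated -50 to +50 range.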 A number with no mark means an inactive call. Further read-outs or replicates are left out here. Reagent sequences are not shown. Not stated in the record: the amount of reagent."}
{"target gene": "TM4SF4", "two-siRNA summed score (-2 to +2)": 0}
{"target gene": "YWHAZ", "two-siRNA summed score (-2 to +2)": -1}
{"target gene": "ADI1", "two-siRNA summed score (-2 to +2)": -1}
{"target gene": "AGPS-DT", "two-siRNA summed score (-2 to +2)": 0}
{"target gene": "OR6C75", "two-siRNA summed score (-2 to +2)": 0}
{"target gene": "SNX12", "two-siRNA summed score (-2 to +2)": 0}
{"target gene": "MDN1", "two-siRNA summed score (-2 to +2)": 0}
{"target gene": "DNAJC8", "two-siRNA summed score (-2 to +2)": 0}
{"target gene": "TUT7", "two-siRNA summed score (-2 to +2)": 0}
{"target gene": "GCSAM", "two-siRNA summed score (-2 to +2)": 0}
{"target gene": "IPO11", "two-siRNA summed score (-2 to +2)": 0}
{"target gene": "TDRKH", "two-siRNA summed score (-2 to +2)": 0}
{"target gene": "LOC340571", "two-siRNA summed score (-2 to +2)": 0}
{"target gene": "DPH5", "two-siRNA summed score (-2 to +2)": 0}
{"target gene": "GMCL2", "two-siRNA summed score (-2 to +2)": 0}
{"target gene": "RASSF7", "two-siRNA summed score (-2 to +2)": -1}
{"target gene": "NOP56P2", "two-siRNA summed score (-2 to +2)": 0}
{"target gene": "S100A7", "two-siRNA summed score (-2 to +2)": 0}
{"target gene": "IDI2", "two-siRNA summed score (-2 to +2)": 1}
{"target gene": "QRICH2", "two-siRNA summed score (-2 to +2)": -1}
{"target gene": "LOC400581", "two-siRNA summed score (-2 to +2)": 0}
{"target gene": "SCGB2A1", "two-siRNA summed score (-2 to +2)": 0}
{"target gene": "SEC11C", "two-siRNA summed score (-2 to +2)": 0}
{"target gene": "SLC4A10", "two-siRNA summed score (-2 to +2)": 0}
{"target gene": "ING3", "two-siRNA summed score (-2 to +2)": 0}
{"target gene": "IRF2BPL", "two-siRNA summed score (-2 to +2)": 0}
{"target gene": "BCAS3", "two-siRNA summed score (-2 to +2)": 1}
{"target gene": "OR2T4", "two-siRNA summed score (-2 to +2)": 1}
{"target gene": "PDLIM1", "two-siRNA summed score (-2 to +2)": 0}
{"target gene": "MACROD1", "two-siRNA summed score (-2 to +2)": 0}
{"target gene": "LOC339287", "two-siRNA summed score (-2 to +2)": 0}
